US5276137A, “Analgesic peptides with a trifluoronorvaline modification” (The Research Foundation of State University of New York, priority 1990, dated 1994)
Counter-ions that a name gives are not always drawn. At least one peptide structure holds a part that was inferred or is arguable (an end, a ring closure or a residue). Peptide text beside a SMILES is read from it.

Test system: writhing reaction in ddY male mice
Assay: Analgesic activity: acetic acid writhing test, icv administration in mouse
Format: in vivo
Details: icv administration in saline 10 min after ip 0.7% acetic acid, writhing determined after an additional 10 min

Row | SMILES | Analgesic Activity ED50 (inhibited 50% of the writhing)
1 | CSCC[C@H](NC(=O)[C@H](Cc1ccccc1)NC(=O)CNC(=O)CNC(=O)[C@@H](N)Cc1ccc(O)cc1)C(=O)O [Met-enkephalin, reference compound] | 7.0 × 10^-8 mol/mouse
2 | CSCC[C@H](NC(=O)[C@H](Cc1ccccc1)NC(=O)[C@H](CCC(F)(F)F)NC(=O)CNC(=O)[C@@H](N)Cc1ccc(O)cc1)C(N)=O [TFA Tyr--Gly-L-TFNV-Phe--Met--NH2, TFA Tyr-Gly-(L)-TFNV-Phe-Met-NH2] (HELM PEPTIDE1{Y.G.[O=C([C@H](CCC(F)(F)F)N[*:1])[*:2]].F.M.[am]}$$$$V2.0) | 2.2 × 10^-8 mol/mouse
3 | CSCC[C@H](NC(=O)[C@H](Cc1ccccc1)NC(=O)CNC(=O)[C@@H](CCC(F)(F)F)NC(=O)[C@@H](N)Cc1ccc(O)cc1)C(N)=O [TFA Tyr-D-TFNV-Gly--Phe--Met--NH2] (HELM PEPTIDE1{Y.[O=C([C@@H](CCC(F)(F)F)N[*:1])[*:2]].G.F.M.[am]}$$$$V2.0) | 4.3 × 10^-13 mol/mouse
4 | CSCC[C@H](NC(=O)[C@H](Cc1ccccc1)NC(=O)CNC(=O)[C@H](CCC(F)(F)F)NC(=O)[C@@H](N)Cc1ccc(O)cc1)C(N)=O [TFA Tyr-L-TFNV-Cly--Phe--Met--NH2, TFA Tyr-(L)-TFNV-Gly-Phe-Met-NH2] (HELM PEPTIDE1{Y.[O=C([C@H](CCC(F)(F)F)N[*:1])[*:2]].G.F.M.[am]}$$$$V2.0) | 2.5 × 10^-8 mol/mouse
